Test results published in doi:10.1101/2021.10.01.462762 (bioRxiv, 2021).

What was measured:
[1] = biological target: T1, PdeL (UniProt P21514); experiment: EMSA; conditions: no Cra
T1 sequence (looked up, limits assumed): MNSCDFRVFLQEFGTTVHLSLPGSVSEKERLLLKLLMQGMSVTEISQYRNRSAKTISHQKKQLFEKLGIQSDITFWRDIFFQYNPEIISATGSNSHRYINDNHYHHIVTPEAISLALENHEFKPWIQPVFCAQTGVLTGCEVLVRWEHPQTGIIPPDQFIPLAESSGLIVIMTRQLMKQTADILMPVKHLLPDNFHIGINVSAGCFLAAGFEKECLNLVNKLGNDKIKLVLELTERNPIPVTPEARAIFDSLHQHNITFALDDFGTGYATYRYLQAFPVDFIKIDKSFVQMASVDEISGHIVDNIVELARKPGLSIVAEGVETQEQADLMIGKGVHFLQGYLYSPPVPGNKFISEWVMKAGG

[2] = test system: RNA polymerase holoenzyme; experiment: EMSA; conditions: RNAP alone; probe letters rebuilt from the primers and the genome

Row | Sequence | binding result [1] | binding result [2]
1 | TGCTGAATGGATTCAGTCTTAATGAGTGGG (double strand) [CB CDB oligo (4695/4696)] | no binding | –
2 | TGCTGAATGGATTCAGTCTTAATGAGTGGGTTTTTAAGGGACAGGCATAGAGTAATGATACGTATGCATAACCAACATCTTTACTCATTATGTCATTGAATGTTGACGCTATGTGTTTATGAGGGAGAGGTATTTTCAGTTGATCTGGATTGTTAAATTCATATAATGCGCCTTTGCTC (double strand) [pdeL promoter 4695-4283] | – | binds more weakly

Construct, isoform or probe ends are uncertain for at least one entry. For some assays here: A negative result means that nothing was seen under these conditions. For some assays here: At least one verdict was read from the data and is not stated in words by the source. For some assays here: Tags and fusion partners may be left off the protein sequences shown. For some assays here: A weaker result is weaker than the reference pair of the same experiment.
